Taken from: PubChem BioAssay AID504764 (Drosophila RNAi Screening Center, 2011)
Aim: 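Knock-downs that raise or lower a Notch target reporter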 (primary screen). System: Drosophila Kc167 cells. Knock-down reagent: long dsRNA against Drosophila genes. Timing: about 5 days (4 days dsRNA, then 24 h after transfection). Treatment: transfection of constitutively active membrane-tethered Notch lacking the extracellular domain, read 24 h later. Measured: 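Light from a Notch-responsive E(spl)m3 luciferase reporter under active Notch, with control-promoter and no-Notch reporter wells to normalise; raw counts from paired wells a and b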. Scale: induced reporter light, run 1, well a and induced reporter light, run 1, well b: higher = more light from the Notch target reporter with active Notch; control promoter light, run 1, well a and control promoter light, run 1, well b: higher = more light from the viral control promoter (cell number, transfection, viability); uninduced reporter light, run 1, well a: higher = more light from the Notch target reporter without active Notch. Active means: 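Hit if the duplicate-averaged log2 ratio of induced to control-promoter light gives a plate-wise z beyond ±2, or induced to uninduced beyond ±1.8; weak-control or discordant-duplicate wells dropped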. Calls: active = modifier hit (raised or lowered Notch signal); inactive = not a hit.
In all, the deposit lists about 22,000 reagents; shown is an unselected part of those with a known target gene and a result. Over the whole deposit, 403 (1.9%) are marked active. 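Unnormalised raw counts per well; ratio z-scores behind the hit calls and whether each hit raises or lowers signal are not deposited.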 Unmarked entries are inactive. Reagents against one gene are numbered here. Not stated in the record: the amount of reagent.

CG17928: induced reporter light, run 1, well a = 1.27e5; induced reporter light, run 1, well b = 1.28e5; control promoter light, run 1, well a = 1.40e5; control promoter light, run 1, well b = 1.79e5; uninduced reporter light, run 1, well a = 11075
CG10324: induced reporter light, run 1, well a = 1.72e5; induced reporter light, run 1, well b = 1.94e5; control promoter light, run 1, well a = 1.86e5; control promoter light, run 1, well b = 1.92e5; uninduced reporter light, run 1, well a = 12900
ouib: induced reporter light, run 1, well a = 90090; induced reporter light, run 1, well b = 92135; control promoter light, run 1, well a = 73330; control promoter light, run 1, well b = 60685; uninduced reporter light, run 1, well a = 6030
CG14983: induced reporter light, run 1, well a = 1.20e5; induced reporter light, run 1, well b = 99720; control promoter light, run 1, well a = 1.60e5; control promoter light, run 1, well b = 1.37e5; uninduced reporter light, run 1, well a = 8515
CG14200: induced reporter light, run 1, well a = 4215; induced reporter light, run 1, well b = 4010; control promoter light, run 1, well a = 5328; control promoter light, run 1, well b = 5120; uninduced reporter light, run 1, well a = 5120
Gmap #1: induced reporter light, run 1, well a = 77065; induced reporter light, run 1, well b = 87065; control promoter light, run 1, well a = 96400; control promoter light, run 1, well b = 1.06e5; uninduced reporter light, run 1, well a = 4295
Gmap #2: induced reporter light, run 1, well a = 1.16e5; induced reporter light, run 1, well b = 87040; control promoter light, run 1, well a = 98450; control promoter light, run 1, well b = 1.37e5; uninduced reporter light, run 1, well a = 15895
CG12204: induced reporter light, run 1, well a = 1.53e5; induced reporter light, run 1, well b = 1.57e5; control promoter light, run 1, well a = 1.54e5; control promoter light, run 1, well b = 97480; uninduced reporter light, run 1, well a = 10585
CG18508: induced reporter light, run 1, well a = 73295; induced reporter light, run 1, well b = 75215; control promoter light, run 1, well a = 96625; control promoter light, run 1, well b = 1.34e5; uninduced reporter light, run 1, well a = 6105
CG12914: induced reporter light, run 1, well a = 1.76e5; induced reporter light, run 1, well b = 1.39e5; control promoter light, run 1, well a = 2.21e5; control promoter light, run 1, well b = 2.28e5; uninduced reporter light, run 1, well a = 15175
Fam92: induced reporter light, run 1, well a = 1.85e5; induced reporter light, run 1, well b = 1.83e5; control promoter light, run 1, well a = 1.61e5; control promoter light, run 1, well b = 1.52e5; uninduced reporter light, run 1, well a = 17505
Xxylt: induced reporter light, run 1, well a = 1.93e5; induced reporter light, run 1, well b = 1.84e5; control promoter light, run 1, well a = 1.53e5; control promoter light, run 1, well b = 1.74e5; uninduced reporter light, run 1, well a = 10728

An excerpt from above, showing only “control promoter light, run 1, well a”.
CG12204: 1.54e5
CG18508: 96625
